# Test results taken from the supplement of paper PMC8728848.
# The other results are listed elsewhere or left out.
# Experiments:
# Assay in all cases: glycan array binding signal (z-score within array); higher = stronger binding
# Conditions in all cases: glycan notation: IUPAC condensed, linker removed
# [1] = target: Fuc(a1-3)GlcNAc
# In short: (§1)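 Columns mapping to the same glycan were averaged after glycan names were converted to IUPAC-condensed notation. The data come from 3228 arrays in the Consortium for Functional Glycomics database, limited to those with an available protein sequence. Binding is reported as a within-array Z-score averaged across arrays of one protein sequence and across linkers.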
# [2] = target: Fuc(a1-3)[Gal(b1-4)]Glc6S
# In short: as §1
# [3] = target: Fuc(a1-3)[Gal(b1-4)]GlcNAc
# In short: as §1
# [4] = target: Fuc(a1-3)[Gal(b1-4)]GlcNAc(b1-2)Man
# In short: as §1
# [5] = target: Fuc(a1-3)[Gal(b1-4)]GlcNAc(b1-2)Man(a1-3)[Fuc(a1-3)[Gal(b1-4)]GlcNAc(b1-2)Man(a1-6)]Man(b1-4)GlcNAc(b1-4)GlcNAc
# In short: as §1
# [6] = target: Fuc(a1-3)[Gal(b1-4)]GlcNAc(b1-2)Man(a1-3)[Fuc(a1-3)[Gal(b1-4)]GlcNAc(b1-2)Man(a1-6)]Man(b1-4)GlcNAc(b1-4)[Fuc(a1-6)]GlcNAc
# In short: as §1
# [7] = target: Fuc(a1-3)[Gal(b1-4)]GlcNAc(b1-3)Gal(b1-3)[Fuc(a1-4)]GlcNAc
# In short: as §1
# [8] = target: Fuc(a1-3)[Gal(b1-4)]GlcNAc(b1-3)Gal(b1-4)[Fuc(a1-3)]GlcNAc
# In short: as §1
# [9] = target: Fuc(a1-3)[Gal(b1-4)]GlcNAc(b1-3)Gal(b1-4)[Fuc(a1-3)]GlcNAc(b1-3)Gal(b1-4)[Fuc(a1-3)]GlcNAc
# In short: as §1
# [10] = target: Fuc(a1-3)[Gal(b1-4)]GlcNAc(b1-3)GalNAc
# In short: as §1
# [11] = target: Fuc(a1-3)[Gal(b1-4)]GlcNAc(b1-6)GalNAc
# In short: as §1
# [12] = target: Fuc(a1-3)[Gal(b1-4)]GlcNAc(b1-6)[Gal(b1-3)GlcNAc(b1-3)]Gal(b1-4)Glc
# In short: as §1
# [13] = target: Fuc(a1-3)[Gal(b1-4)]GlcNAc6S
# In short: as §1
# [14] = target: Fuc(a1-3)[Gal3S(b1-4)]Glc
# In short: as §1
# [15] = target: Fuc(a1-3)[Gal3S(b1-4)]GlcNAc
# In short: as §1
# [16] = target: Fuc(a1-3)[Gal3S(b1-4)]GlcNAc6S
# In short: as §1
# [17] = target: Fuc(a1-3)[GalNAc(b1-4)]GlcNAc
# In short: as §1
# [18] = target: Fuc(a1-3)[GalNAc(b1-4)]GlcNAc6S
# In short: as §1
# [19] = target: Fuc(a1-4)GlcNAc
# In short: as §1
# [20] = target: Fuc(b1-3)GlcNAc
# In short: as §1
# [21] = target: Gal(a1-2)Gal
# In short: as §1
# [22] = target: Gal(a1-3)Gal
# In short: as §1
# [23] = target: Gal(a1-3)Gal(b1-3)GlcNAc
# In short: as §1
# [24] = target: Gal(a1-3)Gal(b1-3)GlcNAc(b1-2)Man
# In short: as §1
# [25] = target: Gal(a1-3)Gal(b1-3)GlcNAc(b1-2)Man(a1-3)[Gal(a1-3)Gal(b1-3)GlcNAc(b1-2)Man(a1-6)]Man(b1-4)GlcNAc(b1-4)GlcNAc
# In short: as §1
# [26] = target: Gal(a1-3)Gal(b1-3)GlcNAc(b1-3)GalNAc
# In short: as §1
# [27] = target: Gal(a1-3)Gal(b1-3)GlcNAc(b1-6)GalNAc
# In short: as §1
# [28] = target: Gal(a1-3)Gal(b1-3)[Fuc(a1-4)]GlcNAc(b1-2)Man(a1-3)[Gal(a1-3)Gal(b1-3)[Fuc(a1-4)]GlcNAc(b1-2)Man(a1-6)]Man(b1-4)GlcNAc(b1-4)GlcNAc
# In short: as §1
# [29] = target: Gal(a1-3)Gal(b1-4)Glc
# In short: as §1
# [30] = target: Gal(a1-3)Gal(b1-4)GlcNAc
# In short: as §1
# [31] = target: Gal(a1-3)Gal(b1-4)GlcNAc(b1-2)Man
# In short: as §1
# [32] = target: Gal(a1-3)Gal(b1-4)GlcNAc(b1-2)Man(a1-3)[Gal(a1-3)Gal(b1-4)GlcNAc(b1-2)Man(a1-6)]Man(b1-4)GlcNAc(b1-4)GlcNAc
# In short: as §1
# [33] = target: Gal(a1-3)Gal(b1-4)GlcNAc(b1-3)GalNAc
# In short: as §1
# [34] = target: Gal(a1-3)Gal(b1-4)GlcNAc(b1-6)GalNAc
# In short: as §1
# [35] = target: Gal(a1-3)Gal(b1-4)[Fuc(a1-3)]GlcNAc
# In short: as §1
# [36] = target: Gal(a1-3)Gal(b1-4)[Fuc(a1-3)]GlcNAc(b1-2)Man(a1-3)[Gal(a1-3)Gal(b1-4)[Fuc(a1-3)]GlcNAc(b1-2)Man(a1-6)]Man(b1-4)GlcNAc(b1-4)GlcNAc
# In short: as §1
# [37] = target: Gal(a1-3)GalNAc
# In short: as §1
binder,measurement,setting,value
PX9916F-bfa-443-24-443 (Bacteroides fragilis) (protein) DIRPVGSVIPQTAEEYRALLARAYLNVPNDRGLACLRSDEMLVNDNEYDRNSYGDIERWNDVSPFPGTSQFTWSNFYNVLFIANQVIESQKEITEGTPEVVNQLVGEAHLLRAYLHFVLVNLHGQPYTKSGALNSKSIPLKLDTDLEKTLGRNTVEEVYTSILSDIEHARELINKEKWETVFSYRFNVLSVDALQSRVSLYMGAWPKCLESAEAVLAKKSVLVDMNETPLALPNHFESVESITALEQVMGSSVNNAVWVPATFLALYQEGDKRLAAYFAAPDENGNRKSSKGGKREFSCTFRVGELYLNAAEAAANMDKLPHARMRLLELMRKRYTPEAYDKKENAVNVMDKNALISEILNERARELAFEGHRWFDLRRTTRPRMVKVLQGKTYILEQDDPRYTIPIPRDAIAANPGLAN,glycan array binding signal (z-score),[1],-0.075
same,glycan array binding signal (z-score),[2],0.743
same,glycan array binding signal (z-score),[3],-0.351
same,glycan array binding signal (z-score),[4],1.44
same,glycan array binding signal (z-score),[5],-0.615
same,glycan array binding signal (z-score),[6],1.24
same,glycan array binding signal (z-score),[7],-0.798
same,glycan array binding signal (z-score),[8],-0.112
same,glycan array binding signal (z-score),[9],1.29
same,glycan array binding signal (z-score),[10],-0.382
same,glycan array binding signal (z-score),[11],-0.245
same,glycan array binding signal (z-score),[12],3.87
same,glycan array binding signal (z-score),[13],-0.917
same,glycan array binding signal (z-score),[14],0.001
same,glycan array binding signal (z-score),[15],-0.082
same,glycan array binding signal (z-score),[16],-0.284
same,glycan array binding signal (z-score),[17],0.251
same,glycan array binding signal (z-score),[18],1.15
same,glycan array binding signal (z-score),[19],1.76
same,glycan array binding signal (z-score),[20],-1.11
same,glycan array binding signal (z-score),[21],-1.03
same,glycan array binding signal (z-score),[22],-1.32
same,glycan array binding signal (z-score),[23],-0.405
same,glycan array binding signal (z-score),[24],-0.056
same,glycan array binding signal (z-score),[25],1.22
same,glycan array binding signal (z-score),[26],-0.788
same,glycan array binding signal (z-score),[27],0.175
same,glycan array binding signal (z-score),[28],0.589
same,glycan array binding signal (z-score),[29],-0.007
same,glycan array binding signal (z-score),[30],-0.052
same,glycan array binding signal (z-score),[31],-0.372
same,glycan array binding signal (z-score),[32],0.81
same,glycan array binding signal (z-score),[33],-0.363
same,glycan array binding signal (z-score),[34],0.265
same,glycan array binding signal (z-score),[35],-0.754
same,glycan array binding signal (z-score),[36],1.48
same,glycan array binding signal (z-score),[37],-0.469

# Given tab-delimited: entries from further up
binder	measurement	setting	value
PX9916F-bfa-443-24-443 (Bacteroides fragilis) (protein) DIRPVGSVIPQTAEEYRALLARAYLNVPNDRGLACLRSDEMLVNDNEYDRNSYGDIERWNDVSPFPGTSQFTWSNFYNVLFIANQVIESQKEITEGTPEVVNQLVGEAHLLRAYLHFVLVNLHGQPYTKSGALNSKSIPLKLDTDLEKTLGRNTVEEVYTSILSDIEHARELINKEKWETVFSYRFNVLSVDALQSRVSLYMGAWPKCLESAEAVLAKKSVLVDMNETPLALPNHFESVESITALEQVMGSSVNNAVWVPATFLALYQEGDKRLAAYFAAPDENGNRKSSKGGKREFSCTFRVGELYLNAAEAAANMDKLPHARMRLLELMRKRYTPEAYDKKENAVNVMDKNALISEILNERARELAFEGHRWFDLRRTTRPRMVKVLQGKTYILEQDDPRYTIPIPRDAIAANPGLAN	glycan array binding signal (z-score)	[12]	3.87
same	glycan array binding signal (z-score)	[23]	-0.405
